From publication PMC11094951

By UniProt entry, the sequences of proteins in these tests, tags left out.
UniProt P40227: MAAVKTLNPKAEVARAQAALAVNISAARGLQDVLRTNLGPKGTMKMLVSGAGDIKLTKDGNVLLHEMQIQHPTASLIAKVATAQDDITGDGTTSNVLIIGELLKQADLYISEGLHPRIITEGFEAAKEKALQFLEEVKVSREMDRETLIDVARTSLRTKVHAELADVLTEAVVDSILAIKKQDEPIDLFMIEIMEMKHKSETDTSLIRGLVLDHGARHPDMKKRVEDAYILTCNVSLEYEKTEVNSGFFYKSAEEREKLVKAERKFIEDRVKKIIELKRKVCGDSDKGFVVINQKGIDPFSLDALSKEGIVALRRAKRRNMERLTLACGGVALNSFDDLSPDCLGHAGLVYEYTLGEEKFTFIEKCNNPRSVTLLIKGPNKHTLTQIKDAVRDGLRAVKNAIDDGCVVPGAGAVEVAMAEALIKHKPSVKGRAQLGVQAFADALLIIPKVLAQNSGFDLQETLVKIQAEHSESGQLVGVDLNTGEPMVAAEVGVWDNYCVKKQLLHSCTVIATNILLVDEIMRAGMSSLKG
UniProt P42224: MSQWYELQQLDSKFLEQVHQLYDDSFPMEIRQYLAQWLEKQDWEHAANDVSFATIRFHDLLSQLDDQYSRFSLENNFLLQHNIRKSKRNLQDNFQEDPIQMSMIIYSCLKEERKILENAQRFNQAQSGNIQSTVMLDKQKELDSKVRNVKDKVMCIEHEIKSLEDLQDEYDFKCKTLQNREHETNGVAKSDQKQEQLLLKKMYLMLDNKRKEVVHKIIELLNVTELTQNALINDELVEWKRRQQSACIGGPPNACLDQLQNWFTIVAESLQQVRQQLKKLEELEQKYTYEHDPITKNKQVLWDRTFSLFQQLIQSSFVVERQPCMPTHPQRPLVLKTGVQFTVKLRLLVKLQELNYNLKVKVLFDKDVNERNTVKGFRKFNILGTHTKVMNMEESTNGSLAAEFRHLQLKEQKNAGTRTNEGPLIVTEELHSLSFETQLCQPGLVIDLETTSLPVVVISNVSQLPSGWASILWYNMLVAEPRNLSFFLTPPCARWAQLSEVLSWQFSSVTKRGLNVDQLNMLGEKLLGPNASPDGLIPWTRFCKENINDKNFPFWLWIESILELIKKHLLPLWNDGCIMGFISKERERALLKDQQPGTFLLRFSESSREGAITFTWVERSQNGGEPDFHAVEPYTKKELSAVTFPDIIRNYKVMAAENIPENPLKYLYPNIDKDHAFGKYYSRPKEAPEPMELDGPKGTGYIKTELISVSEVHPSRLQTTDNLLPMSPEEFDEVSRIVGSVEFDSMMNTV

Target: Chaperonin Containing TCP1 Subunit 6 A (CCT6A) (human (endogenous in A549/PC9)) (UniProt P40227)
Assay: affinity purification with mass spectrometry; proteins immunoprecipitated by anti-CCT6A or IgG, Coomassie-stained bands excised, digested, nanoLC-MS/MS (Orbitrap Fusion); cell line not stated

binding: binds
Substance: STAT1 (Signal Transducer and Activator of Transcription 1) (from UniProt P42224 1-750)

Results are given in words; binding and its absence hold for the method and conditions named. Binding seen in cells or lysates may run through a third protein. A yes stands for co-enrichment or nearness to the bait. Other partners may have been found.
